According to PMC8408156:
These are yes or no findings as the source states them, for the method shown. Binding calls can cover weak binding; strength is not graded here.

Biological target: integrin αVβ3
Experiment: ELISA; receptor-ligand in vitro binding assay: integrin αVβ3 coated on a high-binding 96-well plate in carbonate-bicarbonate buffer (4 °C overnight), blocked with PBS (0.1% Tween, 1% BSA); IBSP with or without natural compounds incubated 2 h at room temperature; bound IBSP detected with goat anti-IBSP and AP- or HRP-tagged anti-goat IgG, absorbance read; both purified

B1: Integrin-Binding Sialoprotein (IBSP) (ligand, UniProt P21815 17-317)
chain: FSMKNLHRRVKIEDSEENGVFKYRPRYYLYKHAYFYPHLKRFPVQGSSDSSEENGDDSSEEEEEEEETSNEGENNEESNEDEDSEAENTTLSATTLGYGEDATPGTGYTGLAAIQLPKKAGDITNKATKEKESDEEEEEEEEGNENEESEAEVDENEQGINGTSTNSTEAENGNGSSGGDNGEEGEEESVTGANAEDTTETGRQGKGTSKTTTSPNGGFEPTTPPQVYRTTSPPFGKTTTVEYEGEYEYTGANEYDNGYEIYESENGEPRGDNYRAYEDEYSYFKGQGYDGYDGQNYYHHQ
**Q.** How did the binding turn out when B1 was run?
**A.** The binding was “binds”.
